The results in this text go back to PubChem BioAssay AID1508600 (Functional Genomics Laboratory (NCATS/FGL), 2020).

Screen size: about 53,000 sequences; about 3,700 (7%) were called active.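 The calls were made as follows: active = gene knockdowns whose robust z-score for IL-1 alpha signal is at least 2 or at most -2, so actives lie on both sides; inactive = the rest.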 Some of the results follow.

A short description of the experiment: Components of the Cytosolic LPS Sensing Pathway: Gene Identification via Genome-wide siRNA Screen.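 Also: robust z of the log signal after scaling to non-targeting control siRNA wells of the plate.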 The conditions noted are these: RAW264.7 macrophages, IL-1a HTRF, actives lie on both sides, screened at 100 nM (by protocol), cells primed 5 h with Pam3CSK4 first. The procedure, abridged:
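Knockdown: 100 nM siRNA, 48h, RAW264.7. Stimulation: Pam3CSK4 5 h, then LipidA via TransIT-TKO 24 h. Output: supernatant IL-1a HTRF, negative-control-normalized, log robust z-score; viability by CellTiter-Glo.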
For the sequence GCUGACCGUUACAUCACCATT against Mc2r, the z-score was inactive: -0.876.

Turning to CGCAAGCCAAUCUUCGAAUTT against Shfl, the z-score was inactive: 1.06.

Turning to GGCCAUCGUACGUGUUUGATT against Cdhr3, the z-score is inactive: 0.966.

Turning to GGCACCAAUUACAAGAAAATT against V1rg10, the z-score is inactive: 0.257.

As to GGCCAGAGGACUAUGUUAUTT against C1s2, the z-score is inactive: 1.24.

On to CCCUAUACCUGAAGCAUUATT against Gabrr2, for which the z-score is inactive: 0.0149.

GGCAUCUUCGAAAAAUGAUTT against Reck: the z-score was inactive: -0.552.

As to GUUACAGUAUUCUAUGGGATT against Olfr1080, the z-score was inactive: 0.508.

As for GGAAGAACAGUUCAGCGGATT against Rtkn2, the z-score was inactive: -0.243.

On to GGUGGAAGAUUAGUGACUUTT against Trim38, for which the z-score was inactive: 1.63.

For the sequence GGAUAAUGGAGCAAAUUGCTT against Slc22a1, the z-score was inactive: -0.522.

For the sequence GGGAGUCUUUUUGUUCCCUTT against Lypd1, the z-score is inactive: -0.961.

Consider GCUAAAGAAGGUAACUCAGTT against Zfyve28, for which the z-score is inactive: -0.947.

For GGAUAAGGAUGCUAAAUUCTT against Rps13, the z-score was inactive: -0.847.

Take GGGAAGUUAUAAUGGAAGUTT against Rps15a: the z-score is active: 2.46.

Regarding CCGUCUGAUGAAAACACUATT against Itprid2, the z-score was inactive: 0.263.

For GGAGAACAUUCCUUUACAGTT against Ces1d, the z-score is inactive: 0.585.

Regarding GCAAAUGGUUAUGCAUACATT against Clec4a2, the z-score is inactive: 0.661.

For GGACUGACUCUUUUUUAACTT against Uba3, the z-score was inactive: -0.697.

Regarding CGUAUCAACAUCUCAGAAGTT against Pcbp2, the z-score is inactive: -0.632.

Take “CCCUUAGGAAACAUGUGGATT against 4930519G04Rik”: the z-score is inactive: -0.587.

Regarding GGUGAUCUUUUAUAUUGUGTT against Dmc1, the z-score was inactive: -1.36.

Consider CCAUUGAUCUGAUGCAAAATT against Epcam, for which the z-score is inactive: -0.357.

Turning to GGCCUUUGGUACAUGUAGUTT against Olfr692, the z-score is inactive: 0.557.

As to CGGUCAACAUCAAUGGUAATT against Gkn1, the z-score was inactive: -1.28.

In the case of CCCAUCUUCGUAAAGAGAATT against Mtx1, the z-score is inactive: -0.393.

For the sequence GGAUUCAAAAAAAAAUCGCTT against A2m, the z-score was inactive: 0.189.

As to “GCUCAAAAGAAGUGAGCCUTT against 4631405J19Rik”, the z-score was inactive: -1.99.

For the sequence GGAACACUCUGAAUUCAUUTT against Cxcl15, the z-score was inactive: 0.0905.

As to GGUUUGAUGUUAGACAACGTT against Trim34a, the z-score is inactive: 0.652.

As to GGGUUUCUGACACAUUUCUTT against Tmem260, the z-score is inactive: 0.386.

On to GCUACCUAUGCCAAUAUCATT against Efemp1, for which the z-score is inactive: -0.787.

GCAGUUUGUAUUUGACCUATT against Erp44: the z-score is inactive: 0.533.

On to CCUUAGAUAUCUACUGUAATT against Trim2, for which the z-score was inactive: 1.37.

In the case of GCAUUUAUUACUGUGGAGATT against Olfr1467, the z-score is inactive: 0.45.

On to GGGAAAAUGGAAAAUACAUTT against Emc3, for which the z-score was active: 2.59.

For the sequence GGUGACUGUUCAGAUGGAGTT against Zfp655, the z-score is inactive: -0.506.

In the case of GCUUGUAUUGCUUGUCUUUTT against Olfr172, the z-score is inactive: 1.89.

As for GCUACAAUAUGACAAGUGUTT against Adamts5, the z-score was inactive: 0.0297.

As to GGAAAGAAUGUUUUGUUUCTT against Phex, the z-score was inactive: 0.0899.

Regarding CGAUUACAGCCUUUGUAGATT against Atp2a2, the z-score is inactive: -0.956.

As for CGGUCCCUAAGAAACUCUGTT against Tbc1d2, the z-score was inactive: 0.943.

As to GCUUUGUGGCUCAAGCCAATT against Dnajc22, the z-score is inactive: -0.339.

In the case of GGCUGUGCAGUCUACAAUCTT against Nsmce2, the z-score is inactive: 0.44.

In the case of GGUGAUUAUCGAGAUGAUCTT against Dpagt1, the z-score is inactive: -1.09.

On to GGAGAAACCUGUGUGCAGATT against Tulp4, for which the z-score was inactive: -1.35.

On to GGACCAUCUCUGAUGAACCTT against Fhdc1, for which the z-score was inactive: 0.439.

Regarding GCGGCUCCAAAAUUGUGCUTT against Ipo13, the z-score is inactive: 0.302.

With GGUGCUGAGCAUGGUGUUATT against Spag4, the z-score was active: 3.17.

On to GGAAUACAGUCUUUAUAUGTT against Slco4c1, for which the z-score is inactive: 0.784.

In the case of GGCUUUGCUCGGUUUGGUATT against Zfp870, the z-score is inactive: -0.572.

For GGUACUGAAUAGGACAAAGTT against Stra8, the z-score is inactive: -0.422.

As to GGCUGUGAUGUAAAACAGATT against Leo1, the z-score was inactive: 1.

Consider GGCUAACUUUGACACGAACTT against Cyfip2, for which the z-score is inactive: 0.242.

As for GGCCUUCUAUACUACAGACTT against Hdac1, the z-score is inactive: -1.23.

Take “GGAGGUUCAUAUUAAAUGATT against A330041J22Rik”: the z-score is inactive: -1.38.

As for GGAAUUUCUUCAGGACACUTT against Procr, the z-score is inactive: 0.278.

As for GGGACACAGCUAAAAGCUUTT against Fam20b, the z-score is inactive: 0.146.

As for GGGUGCCGUGGUCAUUUUATT against Ccnd3, the z-score is inactive: 1.65.

Consider CGCCUUGCUUUGUUACCAATT against Tshz2, for which the z-score was inactive: 0.625.

On to GGCACAGCGGGUGAUCAAATT against Tnfaip8l2, for which the z-score was inactive: -0.723.

As for GGAAGCUGAUGGCUAUGACTT against Arc, the z-score is inactive: -0.943.

Turning to CCGUAUGAUUGUCCAAGAGTT against Nckipsd, the z-score is inactive: 0.172.

Take GGUGAUAUUGCCUAGGUACTT against Fmod: the z-score was inactive: -0.391.

As to GGAGUUUGAUCUGCUUCGGTT against Kctd6, the z-score is inactive: 0.367.

As for CAGAGUAUAGCAUAGUGACTT against Psg22, the z-score is inactive: -0.00244.

Consider GGUGAAAACCCUAACAGUCTT against Dcaf12l2, for which the z-score is inactive: -1.36.

With GGUUCUUGUUCAUUCUCUUTT against Slc4a4, the z-score was inactive: -0.0837.

As to CCACUUGAGAGGUGUUUUUTT against Ints5, the z-score was inactive: 1.57.

For the sequence CUCACUUCCCUAUCCAGAGTT against Cracr2b, the z-score is inactive: -0.349.

As to GGACAGCUACAUAAGCUUUTT against Il17d, the z-score is inactive: -1.37.

With GGACAAGCUGAAGACGCACTT against Zfp64, the z-score is active: 3.03.

Regarding GGAGAGUAUACCUGUCUGGTT against Fgfr4, the z-score is inactive: 1.27.

Take GGGAUUCAAACAGGUCUUGTT against Ahsg: the z-score was inactive: -0.0178.

Take GGCUAGCUAACUAUCUCUGTT against Spint4: the z-score is inactive: -0.201.

As to GGAAGAUGUAUUCUUCUCCTT against Gemin4, the z-score was inactive: 0.499.

Consider GGUGGAUCCCAACUGUUUCTT against Akap10, for which the z-score was inactive: -0.159.

With GGUAUAGAUGACCAGAAGATT against Cwc15, the z-score is inactive: -0.189.

On to CCCAUAUCUUAAUCAAAAGTT against Akr1e1, for which the z-score is inactive: 1.48.

As to GGUGAUGAAGAGGUUCCCUTT against Fzd4, the z-score was inactive: -0.868.

Turning to GGUUAAGAGCUCUACAAAUTT against Gdpd4, the z-score is inactive: 0.702.

In the case of GGGCAUGUACUAUGAGCCATT against Ctsll3, the z-score is inactive: -0.888.

Regarding CCCAUGGGCAGAUGAAAGCTT against Olfr1441, the z-score is inactive: -0.482.

On to CGAGAACAGAGGUUUUUAATT against Mxi1, for which the z-score is inactive: 0.0641.

As for GCUAAGUGUAGAAAACAGGTT against Shox2, the z-score was inactive: -0.949.

Consider GGCUUUUACCGCCAAGACGTT against Snx11, for which the z-score is inactive: -0.384.

GCGGGAGUACUACGUCAAUTT against Reps2: the z-score was active: -2.07.

As for GCAGUUUUGUCAAGUUAGATT against Brinp2, the z-score was inactive: -0.841.

With GGCAGUGAAGAGAAGAAGUTT against Trub2, the z-score is inactive: -0.835.

For the sequence GGUAUGGCGUAAACCAGCUTT against Alad, the z-score is inactive: -0.715.

Consider GCGGGUGUACUUAUGGUGATT against Glul, for which the z-score was inactive: 0.47.

Regarding GCUGAUUUUAACAAUACCUTT against Fos, the z-score is inactive: -0.895.

Take GGGCCACACAGAAAUGGUUTT against Ank1: the z-score was inactive: 0.994.

On to GGCUGAAGCAGUCUGUUGCTT against Rpp14, for which the z-score is inactive: -0.578.

Regarding GGUGACCGUUGUAACUGUGTT against Aph1c, the z-score was inactive: -0.161.

Consider CGAAUACGUGUCAUGAUUUTT against Nipsnap2, for which the z-score is inactive: 0.339.

With GCAGACAAAGAUCCUAUGCTT against Atp2b3, the z-score was active: -2.27.

For GGCAAGCUUACAAAAUGGATT against Pgbd5, the z-score is inactive: -0.667.

Turning to CGGACGAUUUCAAUAUUUUTT against Gsap, the z-score is inactive: -1.46.

For CCAAGUGGUACUAAUAAAUTT against Ptpn4, the z-score was inactive: 0.106.

Regarding CCCUCAAUCUAACAGUGCATT against Dsg1b, the z-score is inactive: 0.75.

As for GCUCUGGACUUCGGUAGAUTT against Adrb1, the z-score is inactive: 0.983.

As to GCUACUUGAAUUUAAGGAATT against Mdfic, the z-score is inactive: 0.22.

Take GCGCAAAGAAGUGACUUCATT against Txlna: the z-score is inactive: 0.124.

As to CGGGAUCCAGCCUCUAAGUTT against Palm, the z-score was inactive: -0.246.

For the sequence GCCAAGUAGUAUGUUUCUUTT against Sprn, the z-score was inactive: 0.464.

Consider CCCUUCCUUUUACCAACAATT against Tmod4, for which the z-score is inactive: 0.325.
